Experimental data: PMC3157352
Results are given in words; binding and its absence hold for the method and conditions named. Some entries that bind do so weakly or less than the wild type.

Amino acid sequences for entries named in this document (tags omitted).
UniProt Q9NS91: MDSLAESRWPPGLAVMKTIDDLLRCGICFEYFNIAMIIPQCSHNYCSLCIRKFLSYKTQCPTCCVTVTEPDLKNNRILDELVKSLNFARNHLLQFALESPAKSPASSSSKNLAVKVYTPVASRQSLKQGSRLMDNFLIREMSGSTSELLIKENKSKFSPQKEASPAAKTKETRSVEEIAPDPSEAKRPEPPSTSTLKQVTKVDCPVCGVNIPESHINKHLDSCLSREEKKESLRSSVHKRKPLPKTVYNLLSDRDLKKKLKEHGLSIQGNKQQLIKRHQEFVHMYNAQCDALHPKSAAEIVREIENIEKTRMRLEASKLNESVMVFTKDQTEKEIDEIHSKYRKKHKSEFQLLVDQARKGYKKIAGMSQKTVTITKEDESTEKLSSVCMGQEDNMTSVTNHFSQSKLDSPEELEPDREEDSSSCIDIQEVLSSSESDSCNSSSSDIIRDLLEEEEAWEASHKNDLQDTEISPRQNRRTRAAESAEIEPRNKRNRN
UniProt P12004: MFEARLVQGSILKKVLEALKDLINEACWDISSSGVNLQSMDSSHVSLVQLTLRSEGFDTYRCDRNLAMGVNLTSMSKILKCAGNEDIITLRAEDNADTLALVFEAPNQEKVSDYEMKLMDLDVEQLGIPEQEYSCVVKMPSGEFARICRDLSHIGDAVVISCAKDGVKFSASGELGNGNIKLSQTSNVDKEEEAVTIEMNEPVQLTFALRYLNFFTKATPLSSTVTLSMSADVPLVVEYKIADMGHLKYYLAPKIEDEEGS

Molecular target: human RAD18, yeast two-hybrid fusion (human) (UniProt Q9NS91)
Assay: two-hybrid; S. cerevisiae AH109, pGADT7 (Gal4 activation domain) and pGBKT7 (Gal4 binding domain) fusions; spot assay on SD-L-W-H and SD-L-W-H-A; RAD18 against the 9-1-1 components also with DNA damage (50 Gy IR, HU, MMS, CPT)

human PCNA, yeast two-hybrid fusion (from UniProt P12004 1-261)
binding: binds
